Patent US10154813B1, “Method and apparatus for patient skin color monitoring and drug efficacy measurement” (priority 2017, dated 2018)
For at least one compound, name, drawing or mass did not settle the structure. Ends that are not written are not given here.

Test system: skin capillaries
Experiment: Topical wet run solution on skin: capillary dilation / red shift
Format: in vivo, human
Source text: The inventor's work has identified previously unknown differences in the reactions of healthy and unhealthy individuals to acetylcholine and other vasodilative substances when applied to the skin. […] Additional efficacious wet run solutions include bradykinin, adenosine, vasopressin, nitroglycerin, sildenafil, serotonin, and thrombin.
“Wet runs” can be performed according to the same general protocol described above for dry runs, which are incorporated herein but will not be fully repeated for brevity. The difference is that for wet runs the skin area being measured with the color detector is wetted with a chemical solution (a.k.a. “Wet run solution”). For example, a solution of one or more chemicals (e.g. acetylcholine and/or thrombin) in water, alcohol, petroleum jelly, or saline. The solution can be applied by wiping or covering the area with a wet gauze pad. The solution may be applied once at the beginning of the procedure before the color detector is positioned on the skin, or applied more than once throughout the procedure. Suspensions of effective chemicals (as opposed to solutions), viscous spreadable chemical applications, lipid-carrier compounds, and potentially non-wet applications of effective chemicals are also contemplated.
Wet runs can also be used as a partial substitute for exercise in a clinical setting, such as for patients who are not physically able to perform stress test exercises. The chemical alone provokes the same general types of differential responses as stress test exercise. For example, in a healthy at-rest individual, acetylcholine alone causes skin capillary dilation, which increases blood perfusion and (because blood is red) causes the skin to become more red. In an unhealthy individual, the acetylcholine alone will cause only low, negligible, or even negative red shift. Thus, the differential reactions to application of acetylcholine (for example) can be used to assess vascular health or the effectiveness of medication even without a stress test.

| Compound | skin capillary dilation and red shift (applied to the skin of healthy individuals) | skin capillary dilation and red shift (topical, individuals with weaker circulatory systems) | efficacy as wet run solution (applied to skin surface) |
| --- | --- | --- | --- |
| CC(=O)OCC[N+](C)(C)C [acetylcholine] | significant and detectable capillary dilation and positive red shift | weaker or no dilation and red shift response | – |
| RPPGFSPFR [bradykinin] | – | – | efficacious |
